# This is one part of the list.
# B1: Epa20 (Candida glabrata) (protein)
# chain: MGSSHHHHHHSSGLVPRGSHMASSNIPNNYPLGCSNKYSGHLPGLKMELYSYNYVNPRHPDPQNPGKLDQLYDPNLLGTYECFDSSYKDINYPRVGYKSKTLIGRSDGVSGILNFNFVPPWGCMPQKGQLPPAYNFKSNITLSNFTMILFGYFKPKISGNHIFSLHGDDLIYLNFGAGNAFDCCRQESSADNFGNYQAFSLWGINWEKKTLTVYLDMNTYYPIRIFYNNRDYQAIFNFSFKTEFDSSPVIDFQDYFFFLRDIDGGCPGEV
# Assays:
# Assay in all cases: glycan array binding signal (z-score within array); higher = stronger binding
# Details in all cases: glycan notation: IUPAC condensed, linker removed
# [1] = target: GlcNAc(b1-3)Gal(b1-3)GalNAc
# In short: (§1)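 The binding signal is a Z-score computed within each array. Data were drawn from 3228 arrays in the Consortium for Functional Glycomics database, restricted to those with a known protein sequence. Scores were averaged over arrays of the same protein sequence at different concentrations or buffers, and over linkers, and negative values can be taken as non-binding.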
# GlcNAc(b1-3)Gal(b1-4)Glc = target: GlcNAc(b1-3)Gal(b1-4)Glc
# In short: as §1
# [2] = target: GlcNAc(b1-3)Gal(b1-4)GlcNAc
# In short: as §1
# [3] = target: GlcNAc(b1-3)Gal(b1-4)GlcNAc(b1-2)Man(a1-3)[GlcNAc(b1-3)Gal(b1-4)GlcNAc(b1-2)Man(a1-6)]Man(b1-4)GlcNAc(b1-4)GlcNAc
# In short: as §1
# [4] = target: GlcNAc(b1-3)Gal(b1-4)GlcNAc(b1-2)Man(a1-3)[GlcNAc(b1-3)Gal(b1-4)GlcNAc(b1-2)Man(a1-6)]Man(b1-4)GlcNAc(b1-4)[Fuc(a1-6)]GlcNAc
# In short: as §1
# [5] = target: GlcNAc(b1-3)Gal(b1-4)GlcNAc(b1-2)[GlcNAc(b1-3)Gal(b1-4)GlcNAc(b1-6)]Man(a1-6)[GlcNAc(b1-3)Gal(b1-4)GlcNAc(b1-2)Man(a1-3)]Man(b1-4)GlcNAc(b1-4)GlcNAc
# In short: as §1
# [6] = target: GlcNAc(b1-3)Gal(b1-4)GlcNAc(b1-3)Gal(b1-4)GlcNAc
# In short: as §1
# [7] = target: GlcNAc(b1-3)Gal(b1-4)GlcNAc(b1-3)Gal(b1-4)GlcNAc(b1-2)Man(a1-3)[GlcNAc(b1-3)Gal(b1-4)GlcNAc(b1-3)Gal(b1-4)GlcNAc(b1-2)Man(a1-6)]Man(b1-4)GlcNAc(b1-4)GlcNAc
# In short: as §1
# [8] = target: GlcNAc(b1-3)Gal(b1-4)GlcNAc(b1-3)Gal(b1-4)GlcNAc(b1-2)Man(a1-3)[GlcNAc(b1-3)Gal(b1-4)GlcNAc(b1-3)Gal(b1-4)GlcNAc(b1-2)Man(a1-6)]Man(b1-4)GlcNAc(b1-4)[Fuc(a1-6)]GlcNAc
# In short: as §1
# [9] = target: GlcNAc(b1-3)Gal(b1-4)GlcNAc(b1-3)Gal(b1-4)GlcNAc(b1-2)[GlcNAc(b1-3)Gal(b1-4)GlcNAc(b1-3)Gal(b1-4)GlcNAc(b1-6)]Man(a1-6)[GlcNAc(b1-3)Gal(b1-4)GlcNAc(b1-3)Gal(b1-4)GlcNAc(b1-2)Man(a1-3)]Man(b1-4)GlcNAc(b1-4)[Fuc(a1-6)]GlcNAc
# In short: as §1
# [10] = target: GlcNAc(b1-3)Gal(b1-4)GlcNAc(b1-3)Gal(b1-4)GlcNAc(b1-3)Gal(b1-4)GlcNAc(b1-2)Man(a1-3)[GlcNAc(b1-3)Gal(b1-4)GlcNAc(b1-3)Gal(b1-4)GlcNAc(b1-3)Gal(b1-4)GlcNAc(b1-2)Man(a1-6)]Man(b1-4)GlcNAc(b1-4)GlcNAc
# In short: as §1
# [11] = target: GlcNAc(b1-3)Gal(b1-4)GlcNAc(b1-3)Gal(b1-4)GlcNAc(b1-3)Gal(b1-4)GlcNAc(b1-2)Man(a1-3)[GlcNAc(b1-3)Gal(b1-4)GlcNAc(b1-3)Gal(b1-4)GlcNAc(b1-3)Gal(b1-4)GlcNAc(b1-2)Man(a1-6)]Man(b1-4)GlcNAc(b1-4)[Fuc(a1-6)]GlcNAc
# In short: as §1
# [12] = target: GlcNAc(b1-3)Gal(b1-4)GlcNAc(b1-3)Gal(b1-4)GlcNAc(b1-3)Gal(b1-4)GlcNAc(b1-2)[GlcNAc(b1-3)Gal(b1-4)GlcNAc(b1-3)Gal(b1-4)GlcNAc(b1-3)Gal(b1-4)GlcNAc(b1-6)]Man(a1-6)[GlcNAc(b1-3)Gal(b1-4)GlcNAc(b1-3)Gal(b1-4)GlcNAc(b1-3)Gal(b1-4)GlcNAc(b1-2)Man(a1-3)]Man(b1-4)GlcNAc(b1-4)[Fuc(a1-6)]GlcNAc
# In short: as §1
# [13] = target: GlcNAc(b1-3)Gal(b1-4)GlcNAc(b1-3)Gal(b1-4)GlcNAc(b1-3)Gal(b1-4)GlcNAc(b1-3)Gal(b1-4)GlcNAc(b1-2)Man(a1-3)[GlcNAc(b1-3)Gal(b1-4)GlcNAc(b1-3)Gal(b1-4)GlcNAc(b1-3)Gal(b1-4)GlcNAc(b1-3)Gal(b1-4)GlcNAc(b1-2)Man(a1-6)]Man(b1-4)GlcNAc(b1-4)GlcNAc
# In short: as §1
# [14] = target: GlcNAc(b1-3)Gal(b1-4)GlcNAc(b1-3)Gal(b1-4)GlcNAc(b1-3)Gal(b1-4)GlcNAc(b1-3)Gal(b1-4)GlcNAc(b1-2)Man(a1-3)[GlcNAc(b1-3)Gal(b1-4)GlcNAc(b1-3)Gal(b1-4)GlcNAc(b1-3)Gal(b1-4)GlcNAc(b1-3)Gal(b1-4)GlcNAc(b1-2)Man(a1-6)]Man(b1-4)GlcNAc(b1-4)[Fuc(a1-6)]GlcNAc
# In short: as §1
# [15] = target: GlcNAc(b1-3)Gal(b1-4)GlcNAc(b1-3)Gal(b1-4)GlcNAc(b1-3)Gal(b1-4)GlcNAc(b1-3)Gal(b1-4)GlcNAc(b1-2)[GlcNAc(b1-3)Gal(b1-4)GlcNAc(b1-3)Gal(b1-4)GlcNAc(b1-3)Gal(b1-4)GlcNAc(b1-3)Gal(b1-4)GlcNAc(b1-6)]Man(a1-6)[GlcNAc(b1-3)Gal(b1-4)GlcNAc(b1-3)Gal(b1-4)GlcNAc(b1-3)Gal(b1-4)GlcNAc(b1-3)Gal(b1-4)GlcNAc(b1-2)Man(a1-3)]Man(b1-4)GlcNAc(b1-4)[Fuc(a1-6)]GlcNAc
# In short: as §1
# [16] = target: GlcNAc(b1-3)Gal(b1-4)GlcNAc(b1-3)Gal(b1-4)GlcNAc(b1-3)GalNAc
# In short: as §1
# [17] = target: GlcNAc(b1-3)Gal(b1-4)GlcNAc(b1-3)GalNAc
# In short: as §1
# [18] = target: GlcNAc(b1-3)Gal(b1-4)GlcNAc(b1-3)[GlcNAc(b1-3)Gal(b1-4)GlcNAc(b1-3)]GalNAc
# In short: as §1
# [19] = target: GlcNAc(b1-3)Gal(b1-4)GlcNAc(b1-6)[Gal(b1-3)]GalNAc
# In short: as §1
# [20] = target: GlcNAc(b1-3)Gal(b1-4)GlcNAc(b1-6)[GlcNAc(b1-3)Gal(b1-3)]GalNAc
# In short: as §1
# [21] = target: GlcNAc(b1-3)Gal(b1-4)GlcNAc(b1-6)[GlcNAc(b1-3)]Gal(b1-4)GlcNAc
# In short: as §1
# GlcNAc(b1-3)GalNAc = target: GlcNAc(b1-3)GalNAc
# In short: as §1
# GlcNAc(b1-3)Man = target: GlcNAc(b1-3)Man
# In short: as §1
# [22] = target: GlcNAc(b1-3)[GlcNAc(b1-4)][GlcNAc(b1-6)]GlcNAc
# In short: as §1
# [23] = target: GlcNAc(b1-3)[GlcNAc(b1-6)]Gal(b1-4)GlcNAc
# In short: as §1
# [24] = target: GlcNAc(b1-3)[GlcNAc(b1-6)]GalNAc
# In short: as §1
# [25] = target: GlcNAc(b1-4)Gal(b1-4)GlcNAc
# In short: as §1
# GlcNAc(b1-4)GlcNAc = target: GlcNAc(b1-4)GlcNAc
# In short: as §1
# [26] = target: GlcNAc(b1-4)GlcNAc(b1-4)GlcNAc
# In short: as §1
# [27] = target: GlcNAc(b1-4)GlcNAc(b1-4)GlcNAc(b1-4)GlcNAc(b1-4)GlcNAc
# In short: as §1
# [28] = target: GlcNAc(b1-4)GlcNAc(b1-4)GlcNAc(b1-4)GlcNAc(b1-4)GlcNAc(b1-4)GlcNAc
# In short: as §1
# [29] = target: GlcNAc(b1-4)[GlcNAc(b1-6)]GalNAc
# In short: as §1
# [30] = target: GlcNAc(b1-6)Gal(b1-4)GlcNAc
# In short: as §1
# GlcNAc(b1-6)GalNAc = target: GlcNAc(b1-6)GalNAc
# In short: as §1
# [31] = target: GlcNAc6S(b1-3)Gal(b1-4)GlcNAc
# In short: as §1
# Kdn(a2-3)Gal(b1-3)GalNAc = target: Kdn(a2-3)Gal(b1-3)GalNAc
# In short: as §1
# Kdn(a2-3)Gal(b1-3)GlcNAc = target: Kdn(a2-3)Gal(b1-3)GlcNAc
# In short: as §1
# Kdn(a2-3)Gal(b1-4)Glc = target: Kdn(a2-3)Gal(b1-4)Glc
# In short: as §1
# Kdn(a2-3)Gal(b1-4)GlcNAc = target: Kdn(a2-3)Gal(b1-4)GlcNAc
# In short: as §1
# [32] = target: Kdn(a2-3)Gal(b1-4)[Fuc(a1-3)]GlcNAc
# In short: as §1
# Kdn(a2-6)Gal(b1-4)GlcNAc = target: Kdn(a2-6)Gal(b1-4)GlcNAc
# In short: as §1
# [33] = target: Man(a1-2)Man(a1-2)Man(a1-3)Man
# In short: as §1
# [34] = target: Man(a1-2)Man(a1-2)Man(a1-6)[Man(a1-3)]Man
# In short: as §1
# Man(a1-2)Man(a1-3)Man = target: Man(a1-2)Man(a1-3)Man
# In short: as §1
binder,measurement,setting,value
B1,glycan array binding signal (z-score),[1],-0.337
same,glycan array binding signal (z-score),GlcNAc(b1-3)Gal(b1-4)Glc,-0.229
same,glycan array binding signal (z-score),[2],-0.725
same,glycan array binding signal (z-score),[3],-0.752
same,glycan array binding signal (z-score),[4],0.394
same,glycan array binding signal (z-score),[5],0.885
same,glycan array binding signal (z-score),[6],-0.315
same,glycan array binding signal (z-score),[7],1.93
same,glycan array binding signal (z-score),[8],0.971
same,glycan array binding signal (z-score),[9],1.39
same,glycan array binding signal (z-score),[10],0.678
same,glycan array binding signal (z-score),[11],2.38
same,glycan array binding signal (z-score),[12],1.21
same,glycan array binding signal (z-score),[13],1.16
same,glycan array binding signal (z-score),[14],1.65
same,glycan array binding signal (z-score),[15],0.415
same,glycan array binding signal (z-score),[16],-0.311
same,glycan array binding signal (z-score),[17],0.586
same,glycan array binding signal (z-score),[18],0.532
same,glycan array binding signal (z-score),[19],0.596
same,glycan array binding signal (z-score),[20],0.241
same,glycan array binding signal (z-score),[21],-0.313
same,glycan array binding signal (z-score),GlcNAc(b1-3)GalNAc,-0.544
same,glycan array binding signal (z-score),GlcNAc(b1-3)Man,0.181
same,glycan array binding signal (z-score),[22],1.23
same,glycan array binding signal (z-score),[23],-0.516
same,glycan array binding signal (z-score),[24],-0.405
same,glycan array binding signal (z-score),[25],-0.361
same,glycan array binding signal (z-score),GlcNAc(b1-4)GlcNAc,0.467
same,glycan array binding signal (z-score),[26],-0.575
same,glycan array binding signal (z-score),[27],0.463
same,glycan array binding signal (z-score),[28],0.618
same,glycan array binding signal (z-score),[29],-0.604
same,glycan array binding signal (z-score),[30],0.022
same,glycan array binding signal (z-score),GlcNAc(b1-6)GalNAc,-0.147
same,glycan array binding signal (z-score),[31],-0.864
same,glycan array binding signal (z-score),Kdn(a2-3)Gal(b1-3)GalNAc,1.54
same,glycan array binding signal (z-score),Kdn(a2-3)Gal(b1-3)GlcNAc,-0.617
same,glycan array binding signal (z-score),Kdn(a2-3)Gal(b1-4)Glc,0.029
same,glycan array binding signal (z-score),Kdn(a2-3)Gal(b1-4)GlcNAc,-0.422
same,glycan array binding signal (z-score),[32],0.229
same,glycan array binding signal (z-score),Kdn(a2-6)Gal(b1-4)GlcNAc,0.172
same,glycan array binding signal (z-score),[33],-0.751
same,glycan array binding signal (z-score),[34],-0.437
same,glycan array binding signal (z-score),Man(a1-2)Man(a1-3)Man,-0.653

# An excerpt of these results, as tab-separated lines.
binder	measurement	setting	value
B1	glycan array binding signal (z-score)	[28]	0.618
same	glycan array binding signal (z-score)	[29]	-0.604
same	glycan array binding signal (z-score)	[30]	0.022
same	glycan array binding signal (z-score)	GlcNAc(b1-6)GalNAc	-0.147
same	glycan array binding signal (z-score)	[31]	-0.864
same	glycan array binding signal (z-score)	Kdn(a2-3)Gal(b1-3)GalNAc	1.54
same	glycan array binding signal (z-score)	Kdn(a2-3)Gal(b1-3)GlcNAc	-0.617
same	glycan array binding signal (z-score)	Kdn(a2-3)Gal(b1-4)Glc	0.029
same	glycan array binding signal (z-score)	Kdn(a2-3)Gal(b1-4)GlcNAc	-0.422
same	glycan array binding signal (z-score)	[32]	0.229
same	glycan array binding signal (z-score)	Kdn(a2-6)Gal(b1-4)GlcNAc	0.172

# — the supplement of paper PMC8728848
